Some entries share one result that the patent states for a list of compounds.
Molecular target: human cloned 5-HT6 receptors (Homo sapiens, UniProt P50406)
Experiment: 5-HT6 receptor affinity (procedures outlined in WO98/27081)
Format: binding
From the text: Compounds can be tested following the procedures outlined in WO98/27081.

Sequences of proteins named here, by UniProt entry; tags and fusion partners are left off.
UniProt P50406, whole entry: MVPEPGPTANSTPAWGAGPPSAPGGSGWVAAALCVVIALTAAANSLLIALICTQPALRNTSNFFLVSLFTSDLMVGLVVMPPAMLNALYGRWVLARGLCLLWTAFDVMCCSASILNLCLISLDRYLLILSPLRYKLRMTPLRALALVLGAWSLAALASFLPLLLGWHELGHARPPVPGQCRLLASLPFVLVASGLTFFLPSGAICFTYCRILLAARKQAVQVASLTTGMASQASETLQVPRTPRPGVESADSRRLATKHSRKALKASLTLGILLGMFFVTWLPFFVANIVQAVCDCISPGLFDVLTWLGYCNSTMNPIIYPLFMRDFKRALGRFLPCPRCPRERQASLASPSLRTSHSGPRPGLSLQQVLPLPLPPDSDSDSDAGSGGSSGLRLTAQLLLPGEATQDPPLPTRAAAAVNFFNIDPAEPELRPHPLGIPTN

| SMILES | pKi |
| --- | --- |
| Cl.Clc1cccc(Cc2cnc3c(N4CCNCC4)cccc3c2)c1 [Example E1, 3-[(3-Chlorophenyl)methyl]-8-(1-piperazinyl)quinoline hydrochloride] | > 6.0 |
| Cl.c1ccc(Oc2cnc3c(N4CCNCC4)cccc3c2)cc1 [Example E3, 3-(Phenyloxy)-8-(1-piperazinyl)quinoline hydrochloride] | > 6.0 |
